# PubChem BioAssay AID1053208 | Peter MacCallum Cancer Centre, 2014
# Purpose: 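Genes whose silencing cuts survival of bone tumour cells only with doxorubicin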 (primary screen)
# System: mouse osteosarcoma cells, early-passage culture from an engineered mouse model of fibroblastic bone tumour
# Knock-down reagent: siRNA pool against mouse genes, 40 nM
# Duration: about 120 h (48 h before drug, then 72 h with drug)
# Treatment: doxorubicin 100 nM for 72 h, roughly 30-40% inhibitory dose
# Measurement: 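Luminescent ATP signal taken as viability with or without 100 nM doxorubicin for 72 h; mean of two wells set against non-targeting siRNA and turned into robust z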
# Direction: viability z-score with doxorubicin and doxorubicin viability vs non-targeting: higher = more viable cells under doxorubicin; viability z-score without drug: higher = more viable cells with knock-down alone; z-score of drug to no-drug ratio: higher = less drug sensitisation by knock-down
# Hit rule: 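Called active if knock-down leaves viability unchanged without drug (z within -2 to 2) but lowers it with doxorubicin (z at or under -2)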
# The deposit covers about 17,000 reagents; this is a part drawn at random. In the full data, 788 (4.7%) got an active call. 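Calls rest on z-score classes alone; an extra cut-off of viability at most 70% of control was not applied to them.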 Unmarked entries are inactive. The numbers tell different reagents against one gene apart.
gene knocked down,pool no.,combined z-score class,viability z-score with doxorubicin,viability z-score without drug,z-score of drug to no-drug ratio,doxorubicin viability vs non-targeting
Loxhd1,1,no change with or without drug,0.22,-0.84,1.01,0.96
Hacl1,1,high cell count with doxorubicin only,3.15,0.34,3.15,1.22
Luzp2,1,no change with or without drug,0.56,-0.17,0.79,0.99
Apc2,1,no change with or without drug,-0.67,0.84,-1.12,0.88
Kcnh8,1,no change with or without drug,0,0.51,-0.22,0.94
Bbs2,1,no change with or without drug,-0.34,-0.17,-0.11,0.91
Slc38a9,1,no change with or without drug,-0.11,-1.18,0.9,0.93
Slc38a9,2,no change with or without drug,-0.11,-0.17,0.11,0.93
Cd14,1,high cell count without drug only,0.67,2.19,-0.56,1
Fa2h,1,no change with or without drug,-0.11,0.17,-0.11,0.93
Clk4,1,no change with or without drug,-0.22,0.17,-0.22,0.92
Kdf1,1,no change with or without drug,0.67,1.18,0,1
Fkbp6,1,no change with or without drug,0.45,-0.51,1.01,0.98
Mrpl14,1,no change with or without drug,0,-0.67,0.56,0.94
Cep57,1,low cell count with doxorubicin only (active),-2.47,-0.51,-2.25,0.72
Prkar2a,1,no change with or without drug,1.57,0.84,1.12,1.08
Sipa1,1,no change with or without drug,-0.9,-0.84,-0.22,0.86
Ido1,1,no change with or without drug,1.57,0.84,1.12,1.08
Gpr137b,1,no change with or without drug,0.9,-0.51,1.46,1.02
Faah,1,no change with or without drug,1.24,-0.17,1.57,1.05
Ddit4,1,no change with or without drug,1.57,1.52,0.67,1.08
Gpr37l1,1,no change with or without drug,0.22,1.85,-0.79,0.96
Itih3,1,low cell count with doxorubicin only (active),-2.02,-1.18,-1.35,0.76
Zfp120,1,low cell count with doxorubicin only (active),-2.47,0.17,-2.59,0.72

Sorted by “z-score of drug to no-drug ratio” (low to high): 4 of the entries above
gene knocked down,pool no.,combined z-score class,viability z-score with doxorubicin,viability z-score without drug,z-score of drug to no-drug ratio,doxorubicin viability vs non-targeting
Apc2,1,no change with or without drug,-0.67,0.84,-1.12,0.88
Kcnh8,1,no change with or without drug,0,0.51,-0.22,0.94
Bbs2,1,no change with or without drug,-0.34,-0.17,-0.11,0.91
Slc38a9,1,no change with or without drug,-0.11,-1.18,0.9,0.93

Next records:
gene knocked down,pool no.,combined z-score class,viability z-score with doxorubicin,viability z-score without drug,z-score of drug to no-drug ratio,doxorubicin viability vs non-targeting
Aldh7a1,1,no change with or without drug,-0.22,0.51,-0.45,0.92
D630044L22Rik,1,no change with or without drug,0,-0.17,0.22,0.94
Hsp90ab1,1,no change with or without drug,-1.12,-0.17,-1.01,0.84
Vsx1,1,no change with or without drug,0.9,1.85,-0.22,1.02
Dennd5b,1,no change with or without drug,0,0.84,-0.45,0.94
Sap18,1,no change with or without drug,0.22,0.17,0.22,0.96
Pdgfc,1,no change with or without drug,-0.67,-0.51,-0.22,0.88
Tyr,1,no change with or without drug,0.67,1.69,-0.34,1
A430107D22RIK,1,no change with or without drug,-0.34,0.84,-0.79,0.91
Brk1,1,no change with or without drug,-1.35,-0.51,-1.01,0.82
Rtp3,1,high cell count without drug only,0.79,2.53,-0.67,1.01
Nol7,1,low cell count without drug only,-0.67,-2.36,1.24,0.88
Pla2g12a,1,no change with or without drug,0,0.51,-0.22,0.94
Eif2ak1,1,no change with or without drug,-1.12,-1.69,0.11,0.84
Or4k15c,1,no change with or without drug,-0.45,0.17,-0.45,0.9
Ap1g1,1,no change with or without drug,1.46,1.18,0.79,1.07
Dctn3,1,no change with or without drug,1.24,0.17,1.24,1.05
Prxl2a,1,no change with or without drug,1.35,1.52,0.45,1.06
Rufy1,1,high cell count with and without drug,3.04,2.19,1.57,1.21
Tmprss6,1,no change with or without drug,1.69,0.51,1.46,1.09
Traf4,1,no change with or without drug,-1.35,-0.17,-1.24,0.82
Podxl,1,no change with or without drug,0.34,-0.84,1.12,0.97
Gjb5,1,no change with or without drug,1.12,-1.18,2.25,1.04
Ms4a10,1,no change with or without drug,-0.22,0.17,-0.22,0.92
Dnajb7,1,no change with or without drug,-0.45,0.67,-0.79,0.9
Emc6,1,no change with or without drug,-0.45,-0.34,-0.11,0.9
Zfp846,1,no change with or without drug,-1.46,-0.84,-0.9,0.81
Calu,1,no change with or without drug,1.69,0.51,1.46,1.09
Npy2r,1,no change with or without drug,-0.22,-0.67,0.34,0.92
Phc2,1,no change with or without drug,0.67,-0.51,1.24,1
Chm,1,no change with or without drug,-0.34,-1.18,0.56,0.91
Uaca,1,no change with or without drug,0,1.01,-0.56,0.94
Or5b101,1,no change with or without drug,-0.9,-0.84,-0.22,0.86
Lce1g,1,no change with or without drug,-1.8,-1.18,-1.01,0.78
Dhx32,1,no change with or without drug,1.35,0.34,1.24,1.06
Dnase2b,1,no change with or without drug,-0.22,0.51,-0.45,0.92
Stat5b,1,no change with or without drug,-0.9,-0.51,-0.56,0.86
Ceacam19,1,no change with or without drug,-1.12,-1.18,-0.34,0.84
Hyal2,1,no change with or without drug,-0.22,-1.52,1.01,0.92
